Experimental data published in patent US20210230294A1.
Results are given in words; binding and its absence hold for the method and conditions named. Some entries that bind do so weakly or less than the wild type.

The chains behind the UniProt entries cited, without tags or fusion partners. Where a name states a change or a piece, a line headed by the entry shows the natural chain unless it says otherwise.
UniProt P21589: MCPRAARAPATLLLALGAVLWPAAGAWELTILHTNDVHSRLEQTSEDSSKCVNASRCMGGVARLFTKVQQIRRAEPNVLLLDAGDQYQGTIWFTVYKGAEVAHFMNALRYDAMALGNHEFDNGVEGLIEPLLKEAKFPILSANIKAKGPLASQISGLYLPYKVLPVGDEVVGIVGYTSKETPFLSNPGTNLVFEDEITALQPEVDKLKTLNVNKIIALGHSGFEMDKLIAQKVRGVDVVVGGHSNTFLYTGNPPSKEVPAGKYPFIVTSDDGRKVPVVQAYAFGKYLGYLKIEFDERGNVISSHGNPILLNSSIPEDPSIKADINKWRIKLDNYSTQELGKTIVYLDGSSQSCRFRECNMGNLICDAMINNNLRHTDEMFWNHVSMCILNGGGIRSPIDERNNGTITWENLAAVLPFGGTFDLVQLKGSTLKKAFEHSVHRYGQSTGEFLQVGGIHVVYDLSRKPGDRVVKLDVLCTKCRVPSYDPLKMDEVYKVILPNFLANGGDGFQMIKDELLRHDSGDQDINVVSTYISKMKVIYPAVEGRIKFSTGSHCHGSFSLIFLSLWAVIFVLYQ

B1: CL25_hu_10-6 (antibody, V domains shown)
VH: EVQLVQSGAEVKKPGESLKISCKGSGYTFTSYGLSWVRQMPGKGLEWMGEIYPGSGNTYYNEKFKGQVTISADKSISTAYLQWSSLKASDTAMYYCARYDYLGSSYGFDYWGAGTTVTVSS
VL: AIRMTQSPSSFSASTGDRVTITCKASQDVSTAVAWYQQKPGKAPKLLIYSASYRYSGVPSRFSGSGSGTDFTLTISCLQSEDFATYYCQQHYNTPYTFGGGTKLEIK
B2: CL25_hu_11-5 (antibody, V domains shown)
VH: QVQLVQSGAEVKKPGASVKVSCKASGYTFTSYGLSWVRQATGQGLEWMGEIYPGSGNTYYNEKFKGRVTMTANTSISTAYMELSSLRSEDTAVYYCARYDYLGSSYGFDYWGAGTTVTVSS
VL: DIVMTQSPDSLAVSLGERATINCKASQDVSTAVAWYQQKPGQPPKLLIYSASYRYSGVPDRFSGSGSGTDFTLTISSLQAEDVAVYYCQQHYNTPYTFGGGTKLEIK
B3: CL25_hu_11-6 (antibody, V domains shown)
VH: QVQLVQSGAEVKKPGASVKVSCKASGYTFTSYGLSWVRQATGQGLEWMGEIYPGSGNTYYNEKFKGRVTMTANTSISTAYMELSSLRSEDTAVYYCARYDYLGSSYGFDYWGAGTTVTVSS
VL: AIRMTQSPSSFSASTGDRVTITCKASQDVSTAVAWYQQKPGKAPKLLIYSASYRYSGVPSRFSGSGSGTDFTLTISCLQSEDFATYYCQQHYNTPYTFGGGTKLEIK
B4: CL25_hu_11-4 (antibody, V domains shown)
VH: QVQLVQSGAEVKKPGASVKVSCKASGYTFTSYGLSWVRQATGQGLEWMGEIYPGSGNTYYNEKFKGRVTMTANTSISTAYMELSSLRSEDTAVYYCARYDYLGSSYGFDYWGAGTTVTVSS
VL: DIQMTQSPSSLSASVGDRVTITCKASQDVSTAVAWYQQKPGKAPKLLLYSASYRYSGVPSRFSGSGSGTDYTLTISSLQPEDFATYYCQQHYNTPYTFGGGTKLEIK
B5: CL25_hu_9-5 (antibody, V domains shown)
VH: QVQLVQSGAEVKKPGSSVKVSCKASGYTFTSYGLSWVRQAPGQGLEWMGEIYPGSGNTYYNEKFKGRVTITADESTSTAYMELSSLRSEDTAVYYCARYDYLGSSYGFDYWGAGTTVTVSS
VL: DIVMTQSPDSLAVSLGERATINCKASQDVSTAVAWYQQKPGQPPKLLIYSASYRYSGVPDRFSGSGSGTDFTLTISSLQAEDVAVYYCQQHYNTPYTFGGGTKLEIK
B6: CL25_hu_8-4 (antibody, V domains shown)
VH: QVQLVQSGAEVKKPGASVKVSCKASGYTFTSYGLSWVRQATGQGLEWMGEIYPGSGNTYYNEKFKGRVTMTRNTSISTAYMELSSLRSEDTAVYYCARYDYLGSSYGFDYWGAGTTVTVSS
VL: DIQMTQSPSSLSASVGDRVTITCKASQDVSTAVAWYQQKPGKAPKLLLYSASYRYSGVPSRFSGSGSGTDYTLTISSLQPEDFATYYCQQHYNTPYTFGGGTKLEIK
B7: CL25_hu_9-6 (antibody, V domains shown)
VH: QVQLVQSGAEVKKPGSSVKVSCKASGYTFTSYGLSWVRQAPGQGLEWMGEIYPGSGNTYYNEKFKGRVTITADESTSTAYMELSSLRSEDTAVYYCARYDYLGSSYGFDYWGAGTTVTVSS
VL: AIRMTQSPSSFSASTGDRVTITCKASQDVSTAVAWYQQKPGKAPKLLIYSASYRYSGVPSRFSGSGSGTDFTLTISCLQSEDFATYYCQQHYNTPYTFGGGTKLEIK
B8: CL25_hu_8-5 (antibody, V domains shown)
VH: QVQLVQSGAEVKKPGASVKVSCKASGYTFTSYGLSWVRQATGQGLEWMGEIYPGSGNTYYNEKFKGRVTMTRNTSISTAYMELSSLRSEDTAVYYCARYDYLGSSYGFDYWGAGTTVTVSS
VL: DIVMTQSPDSLAVSLGERATINCKASQDVSTAVAWYQQKPGQPPKLLIYSASYRYSGVPDRFSGSGSGTDFTLTISSLQAEDVAVYYCQQHYNTPYTFGGGTKLEIK
B9: CL25_hu_8-6 (antibody, V domains shown)
VH: QVQLVQSGAEVKKPGASVKVSCKASGYTFTSYGLSWVRQATGQGLEWMGEIYPGSGNTYYNEKFKGRVTMTRNTSISTAYMELSSLRSEDTAVYYCARYDYLGSSYGFDYWGAGTTVTVSS
VL: AIRMTQSPSSFSASTGDRVTITCKASQDVSTAVAWYQQKPGKAPKLLIYSASYRYSGVPSRFSGSGSGTDFTLTISCLQSEDFATYYCQQHYNTPYTFGGGTKLEIK
B10: CL25_hu_9-4 (antibody, V domains shown)
VH: QVQLVQSGAEVKKPGSSVKVSCKASGYTFTSYGLSWVRQAPGQGLEWMGEIYPGSGNTYYNEKFKGRVTITADESTSTAYMELSSLRSEDTAVYYCARYDYLGSSYGFDYWGAGTTVTVSS
VL: DIQMTQSPSSLSASVGDRVTITCKASQDVSTAVAWYQQKPGKAPKLLLYSASYRYSGVPSRFSGSGSGTDYTLTISSLQPEDFATYYCQQHYNTPYTFGGGTKLEIK
B11: CL25_hu_10-4 (antibody, V domains shown)
VH: EVQLVQSGAEVKKPGESLKISCKGSGYTFTSYGLSWVRQMPGKGLEWMGEIYPGSGNTYYNEKFKGQVTISADKSISTAYLQWSSLKASDTAMYYCARYDYLGSSYGFDYWGAGTTVTVSS
VL: DIQMTQSPSSLSASVGDRVTITCKASQDVSTAVAWYQQKPGKAPKLLLYSASYRYSGVPSRFSGSGSGTDYTLTISSLQPEDFATYYCQQHYNTPYTFGGGTKLEIK

Biological target: human CD73 on the cell surface (MDA-MB-231 and A375 cells) (human) (UniProt P21589)
Test: flow cytometry on MDA-MB-231 cells, PE-conjugated secondary antibody, GMFI

binding, binds:
B1
B2
B3
B4
B5
B6
B7
B8
B9
B10
B11
